Test results reported in article PMC3910116, “Super Spy variants implicate flexibility in chaperone action” (eLife, 2014).
No constants are given. Whether binding was seen depends on the method and setting. Some binding calls cover weakened binding; strength is not graded here.

By UniProt entry, the sequences of proteins in these tests, tags left out. Residues count along the entry.
UniProt Q03708, residues 6-45: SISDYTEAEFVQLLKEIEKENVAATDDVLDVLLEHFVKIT

Legend:
Im7 7-45 peptide [1] = target: Im7 7-45 peptide (UniProt Q03708); experiment: HDX-MS; top-down ECD-FTICR-MS; 25 µM Spy (dimer) and 100 µM Im7 peptide (1:4), 10 mM ammonium acetate, 80% D2O, labelling time 10 s; both purified
Im7 7-45 peptide [2] = target: Im7 7-45 peptide (UniProt Q03708); experiment: cross-linking; ABAS-12C6/13C6 (photo-reactive, 7 Å), 100 nM; Spy and Im7 7-45 both 26 µM in PBS pH 7.4, 30 min at 25°C then 10 min UV; LC-MS/MS; both purified
Im7 7-45 peptide [3] = target: Im7 7-45 peptide (UniProt Q03708); experiment: cross-linking; PICUP (zero-length, tyrosine reactive); 26 µM Spy and 26 µM equimolar unlabelled and 15N-labelled Im7 7-45 in PBS pH 7.4; LC-MS/MS; both purified
Im7 7-45 peptide [4] = target: Im7 7-45 peptide (UniProt Q03708); experiment: cross-linking; EDC (zero-length, carboxyl/amine reactive), 30 mM; 26 µM Spy and 26 µM equimolar unlabelled and 15N-labelled Im7 7-45 in PBS pH 7.4, 30 min at 25°C; LC-MS/MS; both purified
Im7 7-45 peptide [5] = target: Im7 7-45 peptide (UniProt Q03708); experiment: cross-linking; CBDPS-H8/D8 (amine-reactive, 14 Å), 50 µM; Spy and Im7 7-45 both 26 µM in PBS pH 7.4, 30 min at 25°C; trypsin or proteinase K digest, avidin enrichment, LC-MS/MS; both purified

Measured: binding

B1: Spy (wild type) (protein, UniProt P77754 24-161)
chain: SADTTTAAPADAKPMMHHKGKFGPHQDMMFKDLNLTDAQKQQIREIMKGQRDQMKRPPLEERRAMHDIIASDTFDKVKAEAQIAKMEEQRKANMLAHMETQNKIYNILTPEQKKQFNANFEKRLTERPAAKGKMPATAE
binds: all assays above
